Measurements from doi:10.1101/2021.12.21.473719.
These are yes or no findings as the source states them, for the method shown. Binding seen in cells or lysates may run through a third protein. Some binding calls cover weakened binding; strength is not graded here. Tags and fused reporters may be left off the sequences shown. One block for each binder: values may come before it.

Tests used:
[1] = target: T1, Flag-tagged AC9 (adenylyl cyclase type 9) (UniProt O60503); experiment: co-IP
T1 sequence: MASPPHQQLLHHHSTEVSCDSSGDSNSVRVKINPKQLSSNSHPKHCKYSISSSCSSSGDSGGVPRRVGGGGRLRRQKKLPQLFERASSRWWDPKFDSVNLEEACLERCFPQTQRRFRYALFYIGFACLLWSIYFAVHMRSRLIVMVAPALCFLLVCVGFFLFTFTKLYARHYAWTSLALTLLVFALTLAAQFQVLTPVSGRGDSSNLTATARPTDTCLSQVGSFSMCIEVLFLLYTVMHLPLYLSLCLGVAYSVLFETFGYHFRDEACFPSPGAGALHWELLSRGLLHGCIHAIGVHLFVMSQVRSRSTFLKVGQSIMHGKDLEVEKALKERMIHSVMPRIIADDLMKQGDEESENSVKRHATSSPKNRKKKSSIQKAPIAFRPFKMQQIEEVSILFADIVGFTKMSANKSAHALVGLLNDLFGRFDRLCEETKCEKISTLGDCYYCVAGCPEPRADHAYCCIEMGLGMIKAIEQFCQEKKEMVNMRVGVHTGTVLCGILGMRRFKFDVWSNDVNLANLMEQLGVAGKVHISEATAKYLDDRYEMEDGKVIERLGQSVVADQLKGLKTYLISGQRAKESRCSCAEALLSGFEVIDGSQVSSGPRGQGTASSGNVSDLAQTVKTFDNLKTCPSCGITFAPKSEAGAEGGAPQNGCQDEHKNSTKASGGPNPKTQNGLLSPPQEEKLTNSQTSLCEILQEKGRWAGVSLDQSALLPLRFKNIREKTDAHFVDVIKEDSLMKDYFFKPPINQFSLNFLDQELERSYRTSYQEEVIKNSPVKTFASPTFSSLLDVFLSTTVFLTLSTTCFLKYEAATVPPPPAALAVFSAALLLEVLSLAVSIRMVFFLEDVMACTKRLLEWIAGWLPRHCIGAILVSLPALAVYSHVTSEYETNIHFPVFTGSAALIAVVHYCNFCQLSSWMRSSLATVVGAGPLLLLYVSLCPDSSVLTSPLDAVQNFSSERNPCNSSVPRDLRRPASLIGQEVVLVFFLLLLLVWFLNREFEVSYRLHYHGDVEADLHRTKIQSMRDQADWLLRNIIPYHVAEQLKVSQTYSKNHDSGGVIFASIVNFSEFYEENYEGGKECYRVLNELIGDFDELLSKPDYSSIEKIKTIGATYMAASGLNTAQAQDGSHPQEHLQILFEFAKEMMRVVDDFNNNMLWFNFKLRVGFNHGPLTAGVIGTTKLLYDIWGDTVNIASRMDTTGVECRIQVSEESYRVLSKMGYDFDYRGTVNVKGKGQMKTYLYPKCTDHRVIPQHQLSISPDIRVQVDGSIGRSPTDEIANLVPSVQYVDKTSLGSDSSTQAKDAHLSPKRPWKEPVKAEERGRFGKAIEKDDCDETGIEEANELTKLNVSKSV

[2] = target: POPDC1-Myc (Popeye domain-containing protein 1, Myc-tagged) (mouse) (UniProt Q9ES83); experiment: co-IP

binding [1]: binds
B1: POPDC1-Myc (Popeye domain-containing protein 1, Myc-tagged) (protein, UniProt Q9ES83 1-358)
chain: MNSTESIPLAQSTVAGFTSELESLTPVPSNETTCENWREIHHLVFHVANVCFAVGLLIPTTLHLHMILLRVMLSLGCTLYVVWATLYRCALDVMIWNSVFLGINILHLSYLLYKKRPVKIEKELGGVYHRLFEPLRVPPDLFRRLTGQFCMIQTLKRGQVYATEDKTSVDDRLSILLKGRMKVSYRGHFLHNIYPCAFIDSPEFRSTQMHKGEKFQVTIVADDNCRFLCWSRERLTYFLESEPFLYEIFRYLIGKDITNKLYSLNDPTLNDKKVKKLEPQMSLCTQISMLEMRNSITSSSDGEDGLHHFLRGSSSTASLPMSSPQQRASAKMKPIEEGVEDDDEVFVSPDALKVHQLP

binding [2]: binds
B2: GFP-tagged AC9 (enzyme, UniProt O60503 1-1353)
chain: T1 sequence

binding [1]: binds
B3: POPDC2-Myc (protein, UniProt Q9ES82 1-367)
chain: MSANGSSVAQLLWQPPVCRSWKPDVEGAVYHLANCFLLMGFMAGSGVYGCFYLFGILGPGYLCCVLWGWFDACGLDIVLWNVLLTVACLLQLAQLVYRVRVNTLPEEFNLLYRTLCLPLQVPLQVYKEIVHCCHEQVLTLATEQTYAVEGETPINRLSLLLSGRVRVSQDGQFLHYIFPYQFMDSPEWESLHPSEEGTFQVTLTAETECSYISWPRKNLYLLLNRERYISRLFSALLGYDISEKLYTLNDKLFAKFGLRFDIRLPSLYHVLSPSASDGEPESEKDDEEALEAAVSPAQARPICIVPTPPCSAPPATTNFPVPLPRARMPRMPRPDSGNLASRRPLQNSSQVMSRSQAPLAPIHTPEL
